Reference: the supplement of paper PMC3682954
Where a name gives a salt, the structure may show the parent alone. ± gives the standard deviation of the averaged measurements. This is one part of the list. Many values rest on one well or one pass, so single values are uncertain.

Tested on: RAW 264.7
Assay: cell viability (MTT) relative to vehicle control; higher = more viable cells
Conditions: stimulus: HMGB1 5 ug/ml, 18 h
[1] = compound concentration: 1 ug/ml

Row | Structure (SMILES) | cell viability (compound concentration: 3 uM) | cell viability [1]
1 | CC(N)C(=O)OC(C)(C)Cc1ccc(Cl)cc1 (stereo unspecified) | 108% | 
2 | CC(N)C(=O)OC(C)(C)Cc1ccc(Cl)cc1 (stereo unspecified) [Alaproclate hydrochloride] | 96.5% | 
3 | Cc1cccc(Nc2ccccc2C(=O)O)c1C | 109% | 
4 | Cc1cccc(Nc2ccccc2C(=O)O)c1C [Mefenamic acid] | 90.8 ± 10% | 
5 | CCC(C)n1ncn(-c2ccc(N3CCN(c4ccc(OCC5COC(Cn6cncn6)(c6ccc(Cl)cc6Cl)O5)cc4)CC3)cc2)c1=O (stereo unspecified) | 86.6 ± 11% | 
6 | CCC(C)n1ncn(-c2ccc(N3CCN(c4ccc(OCC5COC(Cn6cncn6)(c6ccc(Cl)cc6Cl)O5)cc4)CC3)cc2)c1=O (stereo unspecified) [Itraconazole] | 99.2 ± 5.1% | 
7 | CCOc1cc(N)c(Cl)cc1C(=O)NCC1CN(Cc2ccc(F)cc2)CCO1 (stereo unspecified) | 89% | 
8 | C[n+]1ccccc1/C=N/O [Pralidoxime chloride] | 110% | 
9 | C[n+]1ccccc1/C=N/O | 105% | 
10 | O=C(O)CCNC(=O)c1ccc(/N=N/c2ccc(O)c(C(=O)O)c2)cc1 [Balsalazide Sodium] | 102% | 
11 | O=C(O)CCNC(=O)c1ccc(/N=N/c2ccc(O)c(C(=O)O)c2)cc1 | 97% | 
12 | Cc1cc(O)c2c(c1)C(=O)c1cc(O)cc(O)c1C2=O [Emodin] | 104% | 102%
13 | OCC1OC(Oc2ccc3c(c2)OC[C@H]2c4cc5c(cc4O[C@@H]32)OCO5)C(O)C(O)C1O (stereo partly specified) |  | 97.9%
14 | Clc1ccc(Nc2nnc(Cc3ccncc3)c3ccccc23)cc1 [Vatalanib] | 128 ± 21% | 
15 | Nc1ccc2c3c(cccc13)C(=O)NC2=O [4-Amino-1,8-naphthalimide] | 104% | 
16 | C[N+](C)(C)CCO.[Cl-] | 113% | 
17 | C/C=C1\[C@H]2C=C(C)C[C@]1(N)c1ccc(=O)[nH]c1C2 | 100% | 
18 | O=C(Oc1cccc2cccnc12)c1ccccc1 | 108% | 
19 | CN1CCC(OC(c2ccccc2)c2ccccc2)CC1 | 100% | 
20 | CN1CCC(OC(c2ccccc2)c2ccccc2)CC1 [Diphenylpyraline hydrochloride] | 113% | 
21 | NCCC[C@H](N)CC(=O)N[C@H]1CNC(=O)[C@H]([C@H]2C[C@H](O)NC(N)=N2)NC(=O)/C(=C/NC(N)=O)NC(=O)[C@H](CO)NC(=O)[C@H](CO)NC1=O [Viomycin sulfate] | 94.6% | 
22 | CN(C)CCCN1c2ccccc2CCc2ccccc21 | 98.5% | 
23 | CN(C)CCCN1c2ccccc2CCc2ccccc21 [Imipramine hydrochloride] | 103 ± 12% | 
24 | CN(C)CCCN1c2ccccc2CCc2ccccc21 [Imipramine] | 99% | 
25 | Cc1cccc(C(=O)NCN2CCN(c3ccccc3C#N)CC2)c1 [PD 168,077 maleate] | 113% | 

Part of the list above, reformatted:
Clc1ccc(Nc2nnc(Cc3ccncc3)c3ccccc23)cc1 [Vatalanib]
  cell viability (compound concentration: 3 uM): 128 ± 21%
Nc1ccc2c3c(cccc13)C(=O)NC2=O [4-Amino-1,8-naphthalimide]
  cell viability (compound concentration: 3 uM): 104%
